Results reported in paper doi:10.1101/2020.05.13.094391.
Results are given in words; binding and its absence hold for the method and conditions named. For some assays here: Binding seen in cells or lysates may run through a third protein. Some results given as binding are weak or reduced against the parent protein; the word gives no strength. For some assays here: Tags and fused reporters may be left off the sequences shown.

Chains of the proteins cited; added tags and fusions are not shown.
UniProt Q12888: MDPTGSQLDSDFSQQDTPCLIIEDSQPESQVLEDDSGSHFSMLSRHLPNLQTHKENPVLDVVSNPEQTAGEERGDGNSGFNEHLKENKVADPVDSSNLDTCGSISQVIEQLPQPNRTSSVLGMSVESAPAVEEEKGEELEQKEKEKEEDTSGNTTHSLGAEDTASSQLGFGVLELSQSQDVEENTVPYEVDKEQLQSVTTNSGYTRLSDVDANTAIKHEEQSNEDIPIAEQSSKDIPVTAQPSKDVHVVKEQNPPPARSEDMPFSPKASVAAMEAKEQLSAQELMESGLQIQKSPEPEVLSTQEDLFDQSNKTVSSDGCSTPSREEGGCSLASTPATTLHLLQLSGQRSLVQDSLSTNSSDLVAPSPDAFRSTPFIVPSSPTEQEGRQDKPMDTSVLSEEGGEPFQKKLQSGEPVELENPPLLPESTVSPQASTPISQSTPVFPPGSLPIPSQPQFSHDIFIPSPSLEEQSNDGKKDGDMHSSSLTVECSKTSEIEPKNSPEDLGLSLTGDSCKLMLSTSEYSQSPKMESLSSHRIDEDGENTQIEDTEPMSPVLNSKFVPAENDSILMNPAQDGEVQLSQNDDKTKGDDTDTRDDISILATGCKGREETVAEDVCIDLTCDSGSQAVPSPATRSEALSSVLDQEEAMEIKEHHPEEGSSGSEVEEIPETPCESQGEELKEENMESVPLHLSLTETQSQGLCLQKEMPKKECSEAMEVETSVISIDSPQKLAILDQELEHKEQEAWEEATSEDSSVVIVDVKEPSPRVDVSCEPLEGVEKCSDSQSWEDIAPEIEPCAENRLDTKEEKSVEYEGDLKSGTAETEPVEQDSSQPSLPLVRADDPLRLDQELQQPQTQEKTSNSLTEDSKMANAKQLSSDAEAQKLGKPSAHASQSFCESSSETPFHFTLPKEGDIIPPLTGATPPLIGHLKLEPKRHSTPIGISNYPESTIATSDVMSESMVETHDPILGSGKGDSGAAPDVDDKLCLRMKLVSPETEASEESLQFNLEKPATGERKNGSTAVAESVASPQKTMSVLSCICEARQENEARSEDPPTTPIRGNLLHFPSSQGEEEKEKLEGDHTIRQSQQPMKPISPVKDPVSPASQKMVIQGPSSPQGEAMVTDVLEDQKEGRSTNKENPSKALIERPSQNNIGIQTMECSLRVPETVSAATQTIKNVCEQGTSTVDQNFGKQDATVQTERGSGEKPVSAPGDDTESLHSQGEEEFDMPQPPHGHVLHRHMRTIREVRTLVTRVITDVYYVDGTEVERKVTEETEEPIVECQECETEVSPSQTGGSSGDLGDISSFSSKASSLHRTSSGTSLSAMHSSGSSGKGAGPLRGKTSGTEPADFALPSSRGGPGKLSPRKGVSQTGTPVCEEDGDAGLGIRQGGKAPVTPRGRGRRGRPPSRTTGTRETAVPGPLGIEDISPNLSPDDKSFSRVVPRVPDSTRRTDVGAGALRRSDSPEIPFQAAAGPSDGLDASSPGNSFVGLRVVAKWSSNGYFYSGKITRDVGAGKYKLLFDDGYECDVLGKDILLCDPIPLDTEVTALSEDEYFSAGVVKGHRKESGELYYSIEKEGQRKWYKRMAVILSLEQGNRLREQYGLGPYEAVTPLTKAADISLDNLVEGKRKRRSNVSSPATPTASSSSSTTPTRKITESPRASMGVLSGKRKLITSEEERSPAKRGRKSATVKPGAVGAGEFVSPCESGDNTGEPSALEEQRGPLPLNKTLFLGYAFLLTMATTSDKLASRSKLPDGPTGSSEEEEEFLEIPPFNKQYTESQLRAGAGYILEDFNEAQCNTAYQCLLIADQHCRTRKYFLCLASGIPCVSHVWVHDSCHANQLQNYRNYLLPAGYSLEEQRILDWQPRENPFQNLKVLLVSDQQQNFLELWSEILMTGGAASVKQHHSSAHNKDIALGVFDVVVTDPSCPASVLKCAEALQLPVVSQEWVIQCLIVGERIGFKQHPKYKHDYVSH

Legend:
[1] = target: 53BP1, full length (two-hybrid bait) (UniProt Q12888); test: two-hybrid
[2] = target: 53BP1, endogenous (human (endogenous in U2OS)) (UniProt Q12888); test: co-IP

binding [1] | binding [2] | Binder
binds | – | Zinc finger E-box-Binding protein ZEB1, full-length human (two-hybrid fusion) (protein, UniProt P37275-1 1-1124) MADGPRCKRRKQANPRRNNVTNYNTVVETNSDSDDEDKLHIVEEESVTDAADCEGVPEDDLPTDQTVLPGRSSEREGNAKNCWEDDRKEGQEILGPEAQADEAGCTVKDDECESDAENEQNHDPNVEEFLQQQDTAVIFPEAPEEDQRQGTPEASGHDENGTPDAFSQLLTCPYCDRGYKRFTSLKEHIKYRHEKNEDNFSCSLCSYTFAYRTQLERHMTSHKSGRDQRHVTQSGCNRKFKCTECGKAFKYKHHLKEHLRIHSGEKPYECPNCKKRFSHSGSYSSHISSKKCISLIPVNGRPRTGLKTSQCSSPSLSASPGSPTRPQIRQKIENKPLQEQLSVNQIKTEPVDYEFKPIVVASGINCSTPLQNGVFTGGGPLQATSSPQGMVQAVVLPTVGLVSPISINLSDIQNVLKVAVDGNVIRQVLENNQANLASKEQETINASPIQQGGHSVISAISLPLVDQDGTTKIIINYSLEQPSQLQVVPQNLKKENPVATNSCKSEKLPEDLTVKSEKDKSFEGGVNDSTCLLCDDCPGDINALPELKHYDLKQPTQPPPLPAAEAEKPESSVSSATGDGNLSPSQPPLKNLLSLLKAYYALNAQPSAEELSKIADSVNLPLDVVKKWFEKMQAGQISVQSSEPSSPEPGKVNIPAKNNDQPQSANANEPQDSTVNLQSPLKMTNSPVLPVGSTTNGSRSSTPSPSPLNLSSSRNTQGYLYTAEGAQEEPQVEPLDLSLPKQQGELLERSTITSVYQNSVYSVQEEPLNLSCAKKEPQKDSCVTDSEPVVNVIPPSANPINIAIPTVTAQLPTIVAIADQNSVPCLRALAANKQTILIPQVAYTYSTTVSPAVQEPPLKVIQPNGNQDERQDTSSEGVSNVEDQNDSDSTPPKKKMRKTENGMYACDLCDKIFQKSSSLLRHKYEHTGKRPHECGICKKAFKHKHHLIEHMRLHSGEKPYQCDKCGKRFSHSGSYSQHMNHRYSYCKREAEERDSTEQEEAGPEILSNEHVGARASPSQGDSDERESLTREEDEDSEKEEEEEDKEMEELQEEKECEKPQGDEEEEEEEEEVEEEEVEEAENEGEEAKTEGLMKDDRAESQASSLGQKVGESSEQVSEEKTNEA
– | binds | ZEB1, endogenous (protein, UniProt P37275 1-1124) MADGPRCKRRKQANPRRNNVTNYNTVVETNSDSDDEDKLHIVEEESVTDAADCEGVPEDDLPTDQTVLPGRSSEREGNAKNCWEDDRKEGQEILGPEAQADEAGCTVKDDECESDAENEQNHDPNVEEFLQQQDTAVIFPEAPEEDQRQGTPEASGHDENGTPDAFSQLLTCPYCDRGYKRFTSLKEHIKYRHEKNEDNFSCSLCSYTFAYRTQLERHMTSHKSGRDQRHVTQSGCNRKFKCTECGKAFKYKHHLKEHLRIHSGEKPYECPNCKKRFSHSGSYSSHISSKKCISLIPVNGRPRTGLKTSQCSSPSLSASPGSPTRPQIRQKIENKPLQEQLSVNQIKTEPVDYEFKPIVVASGINCSTPLQNGVFTGGGPLQATSSPQGMVQAVVLPTVGLVSPISINLSDIQNVLKVAVDGNVIRQVLENNQANLASKEQETINASPIQQGGHSVISAISLPLVDQDGTTKIIINYSLEQPSQLQVVPQNLKKENPVATNSCKSEKLPEDLTVKSEKDKSFEGGVNDSTCLLCDDCPGDINALPELKHYDLKQPTQPPPLPAAEAEKPESSVSSATGDGNLSPSQPPLKNLLSLLKAYYALNAQPSAEELSKIADSVNLPLDVVKKWFEKMQAGQISVQSSEPSSPEPGKVNIPAKNNDQPQSANANEPQDSTVNLQSPLKMTNSPVLPVGSTTNGSRSSTPSPSPLNLSSSRNTQGYLYTAEGAQEEPQVEPLDLSLPKQQGELLERSTITSVYQNSVYSVQEEPLNLSCAKKEPQKDSCVTDSEPVVNVIPPSANPINIAIPTVTAQLPTIVAIADQNSVPCLRALAANKQTILIPQVAYTYSTTVSPAVQEPPLKVIQPNGNQDERQDTSSEGVSNVEDQNDSDSTPPKKKMRKTENGMYACDLCDKIFQKSSSLLRHKYEHTGKRPHECGICKKAFKHKHHLIEHMRLHSGEKPYQCDKCGKRFSHSGSYSQHMNHRYSYCKREAEERDSTEQEEAGPEILSNEHVGARASPSQGDSDERESLTREEDEDSEKEEEEEDKEMEELQEEKECEKPQGDEEEEEEEEEVEEEEVEEAENEGEEAKTEGLMKDDRAESQASSLGQKVGESSEQVSEEKTNEA
